Article PMC9218118
Results are given in words; binding and its absence hold for the method and conditions named. In cells and extracts the contact can be indirect. Some binding calls cover weakened binding; strength is not graded here.

Protein sequences, listed by entry. Tags and fused reporters are not part of them. Residues count along the entry.
UniProt Q05030, residues 32-1097: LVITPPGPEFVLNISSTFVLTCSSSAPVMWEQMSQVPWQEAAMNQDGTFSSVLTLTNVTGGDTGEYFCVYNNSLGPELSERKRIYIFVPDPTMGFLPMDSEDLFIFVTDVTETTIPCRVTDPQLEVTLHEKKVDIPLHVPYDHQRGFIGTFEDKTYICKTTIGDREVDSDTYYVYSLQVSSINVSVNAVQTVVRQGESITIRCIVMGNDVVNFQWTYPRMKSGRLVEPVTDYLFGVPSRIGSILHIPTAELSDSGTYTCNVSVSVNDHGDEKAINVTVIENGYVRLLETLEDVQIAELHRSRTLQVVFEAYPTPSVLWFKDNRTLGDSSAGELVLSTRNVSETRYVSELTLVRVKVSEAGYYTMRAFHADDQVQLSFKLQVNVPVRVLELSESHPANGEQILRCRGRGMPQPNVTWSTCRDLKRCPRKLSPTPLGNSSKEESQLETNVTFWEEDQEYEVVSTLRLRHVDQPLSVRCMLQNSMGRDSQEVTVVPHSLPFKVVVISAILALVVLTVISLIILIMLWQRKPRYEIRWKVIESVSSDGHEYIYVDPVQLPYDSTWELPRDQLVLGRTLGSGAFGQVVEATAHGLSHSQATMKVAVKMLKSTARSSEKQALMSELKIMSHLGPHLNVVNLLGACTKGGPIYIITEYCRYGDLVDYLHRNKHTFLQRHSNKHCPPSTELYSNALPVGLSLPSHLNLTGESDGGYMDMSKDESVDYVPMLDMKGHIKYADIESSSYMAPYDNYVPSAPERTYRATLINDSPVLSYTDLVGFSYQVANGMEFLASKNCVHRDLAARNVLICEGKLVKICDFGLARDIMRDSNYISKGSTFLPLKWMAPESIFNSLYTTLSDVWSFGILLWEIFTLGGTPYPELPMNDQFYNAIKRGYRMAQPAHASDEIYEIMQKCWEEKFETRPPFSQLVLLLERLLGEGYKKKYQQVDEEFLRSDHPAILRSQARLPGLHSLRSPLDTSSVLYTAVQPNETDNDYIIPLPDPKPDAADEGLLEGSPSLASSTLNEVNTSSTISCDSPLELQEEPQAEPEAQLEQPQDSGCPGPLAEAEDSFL

Molecular target: T1, Recombinant TEM1 (rTEM1), recombinant extracellular domains (D1-4) of TEM1 protein (human) (UniProt Q9HCU0)
T1 sequence: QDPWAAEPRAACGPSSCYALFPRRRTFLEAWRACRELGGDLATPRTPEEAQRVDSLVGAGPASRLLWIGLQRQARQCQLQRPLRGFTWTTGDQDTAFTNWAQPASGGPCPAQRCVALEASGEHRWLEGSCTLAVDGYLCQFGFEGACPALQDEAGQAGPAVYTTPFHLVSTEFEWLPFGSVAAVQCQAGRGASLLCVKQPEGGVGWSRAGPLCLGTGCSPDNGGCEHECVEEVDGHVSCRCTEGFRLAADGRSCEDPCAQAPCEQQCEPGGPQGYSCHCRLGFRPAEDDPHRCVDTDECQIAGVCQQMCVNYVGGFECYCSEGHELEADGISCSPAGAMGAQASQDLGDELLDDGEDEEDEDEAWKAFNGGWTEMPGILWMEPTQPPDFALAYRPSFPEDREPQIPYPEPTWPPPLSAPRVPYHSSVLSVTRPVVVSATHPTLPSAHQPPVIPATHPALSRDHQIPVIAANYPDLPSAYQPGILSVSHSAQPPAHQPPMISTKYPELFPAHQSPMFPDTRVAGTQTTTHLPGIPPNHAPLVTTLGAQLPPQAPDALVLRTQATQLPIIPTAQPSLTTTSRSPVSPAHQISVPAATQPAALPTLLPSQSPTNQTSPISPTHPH
Assay: co-IP; H9C2 cells treated with 1 μM rTEM1 for 1 h at 37 °C, lysed; immunoprecipitation with anti-TEM1 antibody or rabbit IgG overnight at 4 °C; western blot with anti-PDGFR-β and anti-TEM1; only the target purified

platelet-derived growth factor (PDGF) receptor (PDGFR-β) (from UniProt Q05030 32-1097)
binding: binds
